These results are taken from publication PMC3289600.

No constants are given. Whether binding was seen depends on the method and setting. Binding seen in cells or lysates may run through a third protein. Some entries that bind do so weakly or less than the wild type.

The target of test [1] is T1, E3-ubiquitin ligase TRIM24 (human (endogenous in hESCs)) (UniProt O15164).
T1 sequence: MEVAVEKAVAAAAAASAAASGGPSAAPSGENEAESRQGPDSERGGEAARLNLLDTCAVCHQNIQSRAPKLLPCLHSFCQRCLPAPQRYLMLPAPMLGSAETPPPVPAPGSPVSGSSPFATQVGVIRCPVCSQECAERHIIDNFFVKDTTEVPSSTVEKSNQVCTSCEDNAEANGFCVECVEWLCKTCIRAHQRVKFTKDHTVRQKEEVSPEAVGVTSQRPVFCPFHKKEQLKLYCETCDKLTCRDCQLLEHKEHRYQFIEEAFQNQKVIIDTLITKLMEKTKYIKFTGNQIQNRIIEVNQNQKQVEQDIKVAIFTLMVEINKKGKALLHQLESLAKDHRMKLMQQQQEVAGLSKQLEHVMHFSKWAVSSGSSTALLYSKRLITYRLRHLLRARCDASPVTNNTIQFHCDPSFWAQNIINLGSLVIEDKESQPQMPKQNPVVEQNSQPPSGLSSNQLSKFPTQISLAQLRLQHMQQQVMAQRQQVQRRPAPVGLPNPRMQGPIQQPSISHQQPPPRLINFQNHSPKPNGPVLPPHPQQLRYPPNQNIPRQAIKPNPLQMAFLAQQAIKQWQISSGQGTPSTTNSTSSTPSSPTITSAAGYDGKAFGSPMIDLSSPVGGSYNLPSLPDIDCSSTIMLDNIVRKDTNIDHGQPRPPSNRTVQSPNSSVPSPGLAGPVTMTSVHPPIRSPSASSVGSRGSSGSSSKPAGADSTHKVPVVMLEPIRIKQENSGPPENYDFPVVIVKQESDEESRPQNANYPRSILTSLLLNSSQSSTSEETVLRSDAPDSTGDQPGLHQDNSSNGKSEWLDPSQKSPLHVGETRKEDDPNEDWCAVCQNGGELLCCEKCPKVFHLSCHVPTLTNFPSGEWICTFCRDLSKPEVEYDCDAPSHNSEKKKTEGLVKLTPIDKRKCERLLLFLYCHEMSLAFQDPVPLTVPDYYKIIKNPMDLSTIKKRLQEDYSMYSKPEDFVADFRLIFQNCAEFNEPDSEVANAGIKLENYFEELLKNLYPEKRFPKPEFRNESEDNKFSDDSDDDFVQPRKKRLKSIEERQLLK
Description: co-IP; as a1, lysates of differentiating hESCs after RA addition (differentiation medium without FGF, 1 uM RA); immunoprecipitated with HDM2 or TRIM24 antibodies, Western blot. (In general: Immunoblotting shows a protein as a band on a membrane.)

Test [2] addresses T1, E3-ubiquitin ligase TRIM24 (human (endogenous in hESCs)). Description: co-IP; endogenous proteins; hESCs in complete medium or treated with RA for up to 5 d, lysed in RIPA buffer; 0.5 mg lysate with 2.5 ug antibody (p53, HDM2 or TRIM24) overnight at 4 C, Protein A beads, washed twice with RIPA, Western blot.

For the substance “tumor suppressor p53 (from UniProt P04637 1-393)”, the binding result in test [1] is given as “no binding (condition: after RA addition)”; in test [2], “binds”.
